Values from PubChem BioAssay AID504793 (Drosophila RNAi Screening Center, 2011).

Aim: 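Whole-genome screen for parts of the DNA damage checkpoint at G2/M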 (primary screen)
System: Drosophila S2R+ cells
Reagent: long dsRNA against Drosophila genes, about 0.25 µg dsRNA per well
Time to read-out: 4 days of dsRNA, then 4 hours of drug before read-out
Challenge: doxorubicin 0.5 µM for 4 hours to cause double-strand breaks, in cells also given a low, harmless dose of dsRNA against nbs to sensitise the assay
Read-out: 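Per-well count of mitotic cells stained for phospho-histone H3 after doxorubicin exposure, used as mitotic index; counts are raw and not normalised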
Scale: mitotic cells: higher = more cells in mitosis, weaker G2 arrest
Rule for the call: 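Genes are called active only when high mitotic counts were reproduced with independent dsRNAs and mitosis was checked for delay without damage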
Meaning of the calls: active = confirmed in follow-up tests; inactive = not confirmed
The deposit covers about 23,000 reagents; this is a random part of those with a known target gene and a result. Over the whole deposit, 62 (0.27%) got an active call. 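Calls come from follow-up tests whose scores are not deposited, so confirmed genes may have low counts here; counts are not normalised per plate.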 Raw values vary from plate to plate and are shown uncorrected. The numbers tell different reagents against one gene apart. Names joined by + are all predicted targets of the reagent.

no.	target gene	reagent no.	mitotic cells, replicate 1	mitotic cells, replicate 2	Outcome
1	CG13438	1	4		inactive
2	Tmf	1	11		inactive
3	Tmf	2	1		inactive
4	Arp2	1	6		inactive
5	Hsp60C	1	6		inactive
6	Hsp60C	2	7		inactive
7	Sec31	1	4		inactive
8	Sec31	2	12		inactive
9	CG32832	1	6		inactive
10	sick	1	1		inactive
11	sick	2	7		inactive
12	sick	3	6		inactive
13	sick	4	4		inactive
14	CG11586	1	8		inactive
15	CG11586	2	7		inactive
16	spn-D	1	6		inactive
17	CG10962	1	3		inactive
18	CG10962	2	5		inactive
19	CG13806	1	3		inactive
20	Neurl4	1	2		inactive
21	Eig71Eb	1	5		inactive
22	Fit2	1	5		inactive
23	ATPsynD	1	7		inactive
24	ATPsynD	2	6		inactive
25	CG13575	1	8		inactive
26	CG13575	2	6		inactive
27	Dic3	1	3		inactive
28	CG5013	1	1		inactive
29	COX4L	1	8		inactive
30	CG1288	1	6		inactive
31	CG1288	2	2		inactive
32	CG12158	1	11		inactive
33	Npc2e	1	6		inactive
34	Npc2e	2	6		inactive
35	CG5849	1	11		inactive
36	hob	1	6		inactive
37	hob	2	8		inactive
38	Naam	1	5		inactive
39	Oatp58Dc	1	5		inactive
40	Oatp58Dc	2	8		inactive
41	Catsup	1	12		inactive
42	Catsup	2	1		inactive
43	Mal-A7	1	3		inactive
44	CG14834	1	1		inactive
45	CG14834	2	5		inactive
46	CG8671	1	7		inactive
47	CG8671	2	11		inactive
48	CG8671	3	9		inactive
49	TpnC41C	1	4		inactive
50	Syb	1	8		inactive
51	Syb	2	4		inactive
52	nac	1	2		inactive
53	CG13919	1	11		inactive
54	CG9921	1	13		inactive
55	CG6356	1	8		inactive
56	CG4592	1	5		inactive
57	Corin	1	10		inactive
58	Corin	2	4		inactive
59	pncr008:3L (retired record)	1	7		inactive
60	pncr008:3L (retired record)	2	16		inactive
61	CG13005	1	8		inactive
62	Pal1 + Pdrg1	1	7		inactive
63	Pgls	1	7		inactive
64	CG17163	1	9		inactive
65	CG13228	1	8		inactive
66	CG13228	2	6		inactive
67	CG33125	1	7		inactive
68	CG33125	2	5		inactive
69	CG11231 (retired record)	1	9		inactive
70	ImpL2	1	4		inactive
71	ImpL2	2	1		inactive
72	vir	1	8		inactive
73	vir	2	9		inactive
74	CG13131	1	12		inactive
75	Pex7	1	3		inactive
76	CG8388	1	12		inactive
77	Lerp	1	12		inactive
78	Lerp	2	17		inactive
79	Lerp	3	9		inactive
80	Lerp	4	4		inactive
81	Idh3b	1	5		inactive
82	Idh3b	2	7		inactive
83	salt	1	10		inactive
84	salt	2	3		inactive
85	Smyd4-2	1	1		inactive
86	Smyd4-2	2	4		inactive
87	mRpL18	1	8		inactive
88	trol	1	15		inactive
89	trol	2	14		inactive
90	trol	3	5		inactive
91	eIF4G2	1	7		inactive
92	eIF4G2	2	10		inactive
93	Fili	1	12		inactive
94	Fili	2	7		inactive
95	mus301	1	3		inactive
96	m-cup	1	3		inactive
97	nes	1	2		inactive
98	Ance-4	1	4		inactive
99	Rpn3	1	37		inactive
100	Rpn3	2	66		inactive
101	CG42685	1	7	13	inactive
102	slou	1	15		inactive
103	slou	2	11		inactive
104	Fbxo42	1	3		inactive
105	Fbxo42	2	16		inactive
106	feo	1	18		inactive
107	feo	2	6		inactive
108	CG15905	1	5		inactive
109	CG31231	1	10		inactive
110	CG31231	2	1		inactive
111	ND-51L1	1	3		inactive
112	CG32806	1	11		inactive
113	CG32806	2	8		inactive
114	CG3529	1	6		inactive
115	CG3529	2	6		inactive
116	Cog1	1	4		inactive
117	CG14072	1	3		inactive
118	CG9616	1	10		inactive
119	CG9616	2	7		inactive
120	alpha-Est2	1	4		inactive
121	CG32457	1	5		inactive
122	Wnt2	1	9		inactive
123	Wnt2	2	3		inactive
124	BomT3	1	8		inactive
125	BomT3	2	9		inactive
126	CG6733	1	12		inactive
127	CG46491	1	6		inactive
128	CG46491	2	7		inactive
129	B-H2	1	6		inactive
130	B-H2	2	10		inactive
131	CG6191	1	8		inactive
132	CG15021	1	10		inactive
133	CG15021	2	15		inactive
134	CG3597	1	4		inactive
135	CG3597	2	6		inactive
136	bam	1	7		inactive
137	shop	1	9		inactive
138	shop	2	3		inactive
139	CG9643	1	2		inactive
140	CG9643	2	5		inactive
